# Some of the results follow.
# B1: Tp0751, 83732 (protein)
# chain: MSYYHHHHHHLESTSLYKKAGFQHGHVPPRRIPPHDTFGALPTAALPSNARDTAAHPSDTADNTSGSSTTTDPRSHGNAPPAPVGGAAQTHTQPPVQTAMRIALWNRATHGEQGALQHLLAGLWIQTEISPNSGDIHPLLFFDREHAEITFSRASVQEIFLVDSAHTHRKTVSFLTRNTAISSIRRRLEVTFESHEVIHVRAVEDVARLKIGSTSMWDGQYTRYHAGPASAPSP
# Experiments:
# Assay in all cases: glycan array binding signal (z-score within array); higher = stronger binding
# Details in all cases: glycan notation: IUPAC condensed, linker removed
# [1] = biological target: Neu5Ac(a2-3)Gal(b1-4)GlcNAc(b1-6)GalNAc
# Summary of the method: (§1)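 From the Consortium for Functional Glycomics database, 3228 arrays were curated, keeping only those whose protein sequence was available. Binding is given as a within-array Z-score averaged across arrays sharing a protein sequence and across linkers. Negative Z-scores can be read as non-binding.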
# [2] = biological target: Neu5Ac(a2-3)Gal(b1-4)GlcNAc(b1-6)[Gal(b1-3)]GalNAc
# Summary of the method: as §1
# [3] = biological target: Neu5Ac(a2-3)Gal(b1-4)GlcNAc(b1-6)[Neu5Ac(a2-3)Gal(b1-3)]GalNAc
# Summary of the method: as §1
# [4] = biological target: Neu5Ac(a2-3)Gal(b1-4)GlcNAc6S
# Summary of the method: as §1
# [5] = biological target: Neu5Ac(a2-3)Gal(b1-4)[Fuc(a1-3)]GlcNAc
# Summary of the method: as §1
# [6] = biological target: Neu5Ac(a2-3)Gal(b1-4)[Fuc(a1-3)]GlcNAc(b1-2)Man
# Summary of the method: as §1
# [7] = biological target: Neu5Ac(a2-3)Gal(b1-4)[Fuc(a1-3)]GlcNAc(b1-3)Gal
# Summary of the method: as §1
# [8] = biological target: Neu5Ac(a2-3)Gal(b1-4)[Fuc(a1-3)]GlcNAc(b1-3)Gal(b1-4)GlcNAc
# Summary of the method: as §1
# [9] = biological target: Neu5Ac(a2-3)Gal(b1-4)[Fuc(a1-3)]GlcNAc(b1-3)Gal(b1-4)[Fuc(a1-3)]GlcNAc(b1-3)Gal(b1-4)[Fuc(a1-3)]GlcNAc
# Summary of the method: as §1
# [10] = biological target: Neu5Ac(a2-3)Gal(b1-4)[Fuc(a1-3)]GlcNAc(b1-3)GalNAc
# Summary of the method: as §1
# [11] = biological target: Neu5Ac(a2-3)Gal(b1-4)[Fuc(a1-3)]GlcNAc(b1-6)[Gal(b1-3)]GalNAc
# Summary of the method: as §1
# [12] = biological target: Neu5Ac(a2-3)Gal(b1-4)[Fuc(a1-3)]GlcNAc(b1-6)[Neu5Ac(a2-3)Gal(b1-3)]GalNAc
# Summary of the method: as §1
# [13] = biological target: Neu5Ac(a2-3)Gal(b1-4)[Fuc(a1-3)]GlcNAc6S
# Summary of the method: as §1
# [14] = biological target: Neu5Ac(a2-3)Gal6S(b1-4)GlcNAc
# Summary of the method: as §1
# [15] = biological target: Neu5Ac(a2-3)Gal6S(b1-4)[Fuc(a1-3)]GlcNAc
# Summary of the method: as §1
# Neu5Ac(a2-3)GalNAc = biological target: Neu5Ac(a2-3)GalNAc
# Summary of the method: as §1
# [16] = biological target: Neu5Ac(a2-3)GalNAc(b1-4)GlcNAc
# Summary of the method: as §1
# [17] = biological target: Neu5Ac(a2-3)[GalNAc(b1-4)]Gal(b1-4)Glc
# Summary of the method: as §1
# [18] = biological target: Neu5Ac(a2-3)[GalNAc(b1-4)]Gal(b1-4)GlcNAc
# Summary of the method: as §1
# [19] = biological target: Neu5Ac(a2-3)[GalNAc(b1-4)]Gal(b1-4)GlcNAc(b1-3)GalNAc
# Summary of the method: as §1
# [20] = biological target: Neu5Ac(a2-3)[Neu5Ac(a2-6)]GalNAc
# Summary of the method: as §1
# Neu5Ac(a2-6)Gal = biological target: Neu5Ac(a2-6)Gal
# Summary of the method: as §1
# [21] = biological target: Neu5Ac(a2-6)Gal(b1-3)GlcNAc(b1-3)[Gal(b1-4)GlcNAc(b1-6)]Gal(b1-4)Glc
# Summary of the method: as §1
# Neu5Ac(a2-6)Gal(b1-4)Glc = biological target: Neu5Ac(a2-6)Gal(b1-4)Glc
# Summary of the method: as §1
# [22] = biological target: Neu5Ac(a2-6)Gal(b1-4)GlcNAc
# Summary of the method: as §1
# [23] = biological target: Neu5Ac(a2-6)Gal(b1-4)GlcNAc(b1-2)Man
# Summary of the method: as §1
# [24] = biological target: Neu5Ac(a2-6)Gal(b1-4)GlcNAc(b1-2)Man(a1-3)Man(b1-4)GlcNAc(b1-4)GlcNAc
# Summary of the method: as §1
# [25] = biological target: Neu5Ac(a2-6)Gal(b1-4)GlcNAc(b1-2)Man(a1-3)[Gal(b1-4)GlcNAc(b1-2)Man(a1-6)]Man(b1-4)GlcNAc(b1-4)GlcNAc
# Summary of the method: as §1
# [26] = biological target: Neu5Ac(a2-6)Gal(b1-4)GlcNAc(b1-2)Man(a1-3)[GlcNAc(b1-2)Man(a1-6)]Man(b1-4)GlcNAc(b1-4)GlcNAc
# Summary of the method: as §1
# [27] = biological target: Neu5Ac(a2-6)Gal(b1-4)GlcNAc(b1-2)Man(a1-3)[GlcNAc(b1-4)][Neu5Ac(a2-6)Gal(b1-4)GlcNAc(b1-2)Man(a1-6)]Man(b1-4)GlcNAc(b1-4)GlcNAc
# Summary of the method: as §1
# [28] = biological target: Neu5Ac(a2-6)Gal(b1-4)GlcNAc(b1-2)Man(a1-3)[Man(a1-6)]Man(b1-4)GlcNAc(b1-4)GlcNAc
# Summary of the method: as §1
# [29] = biological target: Neu5Ac(a2-6)Gal(b1-4)GlcNAc(b1-2)Man(a1-3)[Neu5Ac(a2-3)Gal(b1-4)GlcNAc(b1-2)Man(a1-6)]Man(b1-4)GlcNAc(b1-4)GlcNAc
# Summary of the method: as §1
# [30] = biological target: Neu5Ac(a2-6)Gal(b1-4)GlcNAc(b1-2)Man(a1-3)[Neu5Ac(a2-6)Gal(b1-4)GlcNAc(b1-2)Man(a1-6)]Man(b1-4)GlcNAc(b1-4)GlcNAc
# Summary of the method: as §1
# [31] = biological target: Neu5Ac(a2-6)Gal(b1-4)GlcNAc(b1-2)Man(a1-3)[Neu5Ac(a2-6)Gal(b1-4)GlcNAc(b1-2)Man(a1-6)]Man(b1-4)GlcNAc(b1-4)[Fuc(a1-6)]GlcNAc
# Summary of the method: as §1
# [32] = biological target: Neu5Ac(a2-6)Gal(b1-4)GlcNAc(b1-2)Man(a1-6)Man(b1-4)GlcNAc(b1-4)GlcNAc
# Summary of the method: as §1
# [33] = biological target: Neu5Ac(a2-6)Gal(b1-4)GlcNAc(b1-2)Man(a1-6)[Gal(b1-4)GlcNAc(b1-2)Man(a1-3)]Man(b1-4)GlcNAc(b1-4)GlcNAc
# Summary of the method: as §1
# [34] = biological target: Neu5Ac(a2-6)Gal(b1-4)GlcNAc(b1-2)Man(a1-6)[GlcNAc(b1-2)Man(a1-3)]Man(b1-4)GlcNAc(b1-4)GlcNAc
# Summary of the method: as §1
# [35] = biological target: Neu5Ac(a2-6)Gal(b1-4)GlcNAc(b1-2)Man(a1-6)[Man(a1-3)]Man(b1-4)GlcNAc(b1-4)GlcNAc
# Summary of the method: as §1
# [36] = biological target: Neu5Ac(a2-6)Gal(b1-4)GlcNAc(b1-2)[Neu5Ac(a2-6)Gal(b1-4)GlcNAc(b1-4)]Man(a1-3)[GlcNAc(b1-4)][Neu5Ac(a2-6)Gal(b1-4)GlcNAc(b1-2)[Neu5Ac(a2-6)Gal(b1-4)GlcNAc(b1-6)]Man(a1-6)]Man(b1-4)GlcNAc(b1-4)GlcNAc
# Summary of the method: as §1
# [37] = biological target: Neu5Ac(a2-6)Gal(b1-4)GlcNAc(b1-2)[Neu5Ac(a2-6)Gal(b1-4)GlcNAc(b1-4)]Man(a1-3)[GlcNAc(b1-4)][Neu5Ac(a2-6)Gal(b1-4)GlcNAc(b1-4)Man(a1-6)]Man(b1-4)GlcNAc(b1-4)GlcNAc
# Summary of the method: as §1
# [38] = biological target: Neu5Ac(a2-6)Gal(b1-4)GlcNAc(b1-2)[Neu5Ac(a2-6)Gal(b1-4)GlcNAc(b1-6)]Man(a1-6)[Neu5Ac(a2-6)Gal(b1-4)GlcNAc(b1-2)Man(a1-3)][GlcNAc(b1-4)]Man(b1-4)GlcNAc(b1-4)GlcNAc
# Summary of the method: as §1
# [39] = biological target: Neu5Ac(a2-6)Gal(b1-4)GlcNAc(b1-3)Gal(b1-3)GlcNAc
# Summary of the method: as §1
# [40] = biological target: Neu5Ac(a2-6)Gal(b1-4)GlcNAc(b1-3)Gal(b1-4)GlcNAc
# Summary of the method: as §1
# [41] = biological target: Neu5Ac(a2-6)Gal(b1-4)GlcNAc(b1-3)Gal(b1-4)GlcNAc(b1-2)Man(a1-3)[Neu5Ac(a2-6)Gal(b1-4)GlcNAc(b1-3)Gal(b1-4)GlcNAc(b1-2)Man(a1-6)]GalNAc
# Summary of the method: as §1
# [42] = biological target: Neu5Ac(a2-6)Gal(b1-4)GlcNAc(b1-3)Gal(b1-4)GlcNAc(b1-3)Gal(b1-4)GlcNAc
# Summary of the method: as §1
binder,measurement,setting,value
B1,glycan array binding signal (z-score),[1],-0.33
same,glycan array binding signal (z-score),[2],-0.36
same,glycan array binding signal (z-score),[3],-0.244
same,glycan array binding signal (z-score),[4],-0.13
same,glycan array binding signal (z-score),[5],-0.213
same,glycan array binding signal (z-score),[6],-0.032
same,glycan array binding signal (z-score),[7],-0.282
same,glycan array binding signal (z-score),[8],0.024
same,glycan array binding signal (z-score),[9],-0.664
same,glycan array binding signal (z-score),[10],0.475
same,glycan array binding signal (z-score),[11],0.078
same,glycan array binding signal (z-score),[12],-0.636
same,glycan array binding signal (z-score),[13],-0.169
same,glycan array binding signal (z-score),[14],-0.236
same,glycan array binding signal (z-score),[15],-0.248
same,glycan array binding signal (z-score),Neu5Ac(a2-3)GalNAc,-0.304
same,glycan array binding signal (z-score),[16],0.045
same,glycan array binding signal (z-score),[17],-0.492
same,glycan array binding signal (z-score),[18],-0.76
same,glycan array binding signal (z-score),[19],0.098
same,glycan array binding signal (z-score),[20],-0.574
same,glycan array binding signal (z-score),Neu5Ac(a2-6)Gal,0.399
same,glycan array binding signal (z-score),[21],-0.484
same,glycan array binding signal (z-score),Neu5Ac(a2-6)Gal(b1-4)Glc,-0.353
same,glycan array binding signal (z-score),[22],-0.264
same,glycan array binding signal (z-score),[23],-0.306
same,glycan array binding signal (z-score),[24],-0.564
same,glycan array binding signal (z-score),[25],-0.426
same,glycan array binding signal (z-score),[26],-0.38
same,glycan array binding signal (z-score),[27],-0.305
same,glycan array binding signal (z-score),[28],-0.358
same,glycan array binding signal (z-score),[29],0.233
same,glycan array binding signal (z-score),[30],-0.21
same,glycan array binding signal (z-score),[31],-0.728
same,glycan array binding signal (z-score),[32],0.136
same,glycan array binding signal (z-score),[33],-0.478
same,glycan array binding signal (z-score),[34],-0.321
same,glycan array binding signal (z-score),[35],0.195
same,glycan array binding signal (z-score),[36],-0.463
same,glycan array binding signal (z-score),[37],-0.371
same,glycan array binding signal (z-score),[38],0.005
same,glycan array binding signal (z-score),[39],0.187
same,glycan array binding signal (z-score),[40],0.086
same,glycan array binding signal (z-score),[41],0.498
same,glycan array binding signal (z-score),[42],-0.558
